# Target: T1, Solute carrier family 22 member 1 (Homo sapiens, UniProt O15245)
# T1 sequence (O15245 whole entry): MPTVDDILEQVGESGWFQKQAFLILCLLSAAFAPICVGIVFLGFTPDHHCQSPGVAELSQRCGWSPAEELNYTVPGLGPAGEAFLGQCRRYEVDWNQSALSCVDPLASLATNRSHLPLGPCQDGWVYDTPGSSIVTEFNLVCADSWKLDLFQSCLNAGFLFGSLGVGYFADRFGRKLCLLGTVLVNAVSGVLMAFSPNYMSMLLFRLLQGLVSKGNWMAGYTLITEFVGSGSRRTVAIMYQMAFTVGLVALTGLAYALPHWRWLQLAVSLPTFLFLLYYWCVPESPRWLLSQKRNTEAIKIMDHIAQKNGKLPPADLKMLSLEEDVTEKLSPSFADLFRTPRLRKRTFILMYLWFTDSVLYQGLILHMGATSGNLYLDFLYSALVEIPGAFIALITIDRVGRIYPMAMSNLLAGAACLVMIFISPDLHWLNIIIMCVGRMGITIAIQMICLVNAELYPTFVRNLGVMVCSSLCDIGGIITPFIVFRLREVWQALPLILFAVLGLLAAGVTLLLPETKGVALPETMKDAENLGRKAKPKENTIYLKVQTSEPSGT
# Type: cell-based, HEK293
smiles,measurement,value
CN1[C@@H]2CC[C@H]1C[C@@H](OC(=O)C(CO)c1ccccc1)C2 (stereo partly specified) [ATROPINE],IC50,12.2 µM

# From ChEMBL document CHEMBL1140113, “Structural requirements for drug inhibition of the liver specific human organic cation transport protein 1” (J Med Chem, 2008)
